Results reported in patent US20210121565A1.
Results are given in words; binding and its absence hold for the method and conditions named. Some results given as binding are weak or reduced against the parent protein; the word gives no strength.

The chains behind the UniProt entries cited, without tags or fusion partners. Where a name states a change or a piece, a line headed by the entry shows the natural chain unless it says otherwise. A line that says so, or that is headed by a name, gives the form on record, which may keep a tag or linker.
aggregated tau in FFPE brain sections of an AD patient (severe tau aggregation and NFT formation) (P10636, form named): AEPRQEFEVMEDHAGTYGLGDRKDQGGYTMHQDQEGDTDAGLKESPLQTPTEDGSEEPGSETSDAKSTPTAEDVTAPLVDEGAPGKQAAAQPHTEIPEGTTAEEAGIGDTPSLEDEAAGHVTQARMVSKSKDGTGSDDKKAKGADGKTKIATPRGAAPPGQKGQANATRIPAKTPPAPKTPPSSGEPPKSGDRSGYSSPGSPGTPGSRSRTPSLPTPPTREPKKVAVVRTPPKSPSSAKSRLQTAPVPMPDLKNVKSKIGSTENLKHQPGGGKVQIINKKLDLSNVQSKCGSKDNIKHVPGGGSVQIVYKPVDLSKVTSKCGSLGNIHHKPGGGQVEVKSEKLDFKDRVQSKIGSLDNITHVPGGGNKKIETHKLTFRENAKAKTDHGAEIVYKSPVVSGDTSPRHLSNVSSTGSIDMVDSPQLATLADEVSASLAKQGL
aggregated tau in FFPE brain sections of a PD (Pick's disease) patient (severe tau aggregation) (P10636, form named): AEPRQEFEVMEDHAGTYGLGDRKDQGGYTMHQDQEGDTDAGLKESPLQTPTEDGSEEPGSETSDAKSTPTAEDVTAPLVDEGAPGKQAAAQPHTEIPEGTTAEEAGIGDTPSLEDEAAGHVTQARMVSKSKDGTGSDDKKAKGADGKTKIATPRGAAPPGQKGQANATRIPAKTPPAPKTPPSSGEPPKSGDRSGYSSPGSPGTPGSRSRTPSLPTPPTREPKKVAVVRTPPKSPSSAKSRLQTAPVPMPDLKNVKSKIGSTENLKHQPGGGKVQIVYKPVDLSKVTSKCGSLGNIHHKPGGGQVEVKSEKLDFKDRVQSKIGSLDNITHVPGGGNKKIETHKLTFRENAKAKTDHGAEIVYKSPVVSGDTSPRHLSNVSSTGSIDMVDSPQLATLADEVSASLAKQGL

Assays:
[1] = biological target: aggregate tau fibrils purified from AD brain homogenates (MC1-affinity purified) (human) (UniProt P10636); test: ELISA on coated purified AD tau fibrils
[2] = biological target: aggregated tau in FFPE brain sections of a PD (Pick's disease) patient (severe tau aggregation) (human) (UniProt P10636); test: immunohistochemistry on FFPE brain sections
[3] = biological target: aggregated tau in FFPE brain sections of an AD patient (severe tau aggregation and NFT formation) (human) (UniProt P10636); test: immunohistochemistry on FFPE brain sections
[4] = biological target: aggregated tau in FFPE brain sections of a normal human individual (minimal tau aggregation) (human) (UniProt P10636); test: immunohistochemistry on FFPE brain sections, semi-quantitative score (mild, +)
[5] = biological target: aggregated tau in FFPE brain sections of a PD (Pick's disease) patient (severe tau aggregation) (human) (UniProt P10636); test: immunohistochemistry on FFPE brain sections, semi-quantitative score (severe, +++)
[6] = biological target: aggregated tau in FFPE brain sections of an AD patient (severe tau aggregation and NFT formation) (human) (UniProt P10636); test: as above

Measured: binding

B1: Exemplified anti-Tau antibody (having both HCs of SEQ ID NO.2 and both LCs of SEQ ID NO.1) (antibody, human IgG4 S228P, kappa, F234A L235A, V domains shown)
VH: EVQLVQSGAEVKKPGESLKISCKGSGYTFSNYWIEWVRQMPGKGLEWMGEILPGSDSIKYEKNFKGQVTISADKSISTAYLQWSSLKASDTAMYYCARRGNYVDDWGQGTLVTVSS
VL: EIVLTQSPGTLSLSPGERATLSCRSSQSLVHSNQNTYLHWYQQKPGQAPRLLIYKVDNRFSGIPDRFSGSGSGTDFTLTISRLEPEDFAVYYCSQSTLVPLTFGGGTKVEIKR
binds: [1] | [2] | [3] | [4] | [5] | [6]
